The other results are listed elsewhere or left out.
Compound: Cc1cc(ccc1-c1ccccc1)C(=O)N1CCCN(CC1)C(=O)CCl [compound 10]
Test: probe-labelled cysteine peptide fold change vs DMSO (competition) (log2 fold change); higher = less target engagement (more negative = stronger competition)
Conditions: 10 µM; THP-1; incubation time: 4 h
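Note: competitive profiling in live THP-1 cells: cysteine peptides tagged with an iodoacetamide desthiobiotin (IA-DTB) probe, intensity after compound treatment relative to DMSO-treated cells.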

Target | probe-labelled cysteine peptide fold change
DLGAP5_Q15398_129_YRPDMPCFLLSNQNAVK (UniProt Q15398) | -0.0877
DHX40_Q8IX18_153_YMTDGCLLK (UniProt Q8IX18) | 0.0621
DNAJC10_Q8IXB1_158_EFDAAVNSGELWFVNFYSPGCSHCHDLAPTWR (UniProt Q8IXB1) | 0.0911
DNM1L_O00429_505_HPDFADACGLMNNNIEEQRR (UniProt O00429) | -0.479
DHX36_Q9H2U1_836_AVICAGLYPK (UniProt Q9H2U1) | -0.0417
DMXL1_Q9Y485_2781_MFEWGHSQQITCFR (UniProt Q9Y485) | -0.0118
DIAPH3_Q9NSV4_1158_EACNVESNR (UniProt Q9NSV4) | -0.103
DNAJC7_Q99615_317_KLDDAIEDCTNAVK (UniProt Q99615) | 0.232
DIS3L_Q8TF46_962_CHSDTIR (UniProt Q8TF46) | -0.0102
DHX57_Q6P158_453_INNPACHK (UniProt Q6P158) | -0.133
DHX9_Q08211_608+612_KDKDDDGGEDDDANCNLICGDEYGPETR (UniProt Q08211) | -0.761
DNAJC13_O75165_884_CHEEIGPFTDTR (UniProt O75165) | -0.0153
DNM1L_O00429_505_HPDFADACGLMNNNIEEQR (UniProt O00429) | -0.477
DIS3_Q9Y2L1_474+476_HLCICSVDPPGCTDIDDALHCR (UniProt Q9Y2L1) | -0.0376
DIS3_Q9Y2L1_562_LAFSCIWEMNHNAEILK (UniProt Q9Y2L1) | 0.248
DIAPH1_O60610_1027_MTLLHFLAELCENDYPDVLK (UniProt O60610) | 0.0966
DNMT1_P26358_353+356_CIQCGQYLDDPDLK (UniProt P26358) | 0.138
DHX36_Q9H2U1_977_SRDCAVLSAIIDLIK (UniProt Q9H2U1) | -0.0297
DNAJB11_Q9UBS4_196_FQMTQEVVCDECPNVK (UniProt Q9UBS4) | 0.0812
DHX29_Q7Z478_648_VCDELGCENGPGGR (UniProt Q7Z478) | 0.0694
DICER1_Q9UPY3_801_CFGILTAKPIPQIPHFPVYTR (UniProt Q9UPY3) | 0.041

Same assay, conditions: 50 µM; THP-1; incubation time: 4 h

Target | probe-labelled cysteine peptide fold change
DHX57_Q6P158_221_MCDGDVGASLEHLLTQCFSETFGER (UniProt Q6P158) | -0.106
DHX37_Q8IY37_1116_ADCHEALLAAWK (UniProt Q8IY37) | 0.00559
DLD_P09622_484_VCHAHPTLSEAFR (UniProt P09622) | 0.0897
DHX36_Q9H2U1_234_ELVNLIDNHQVTVISGETGCGK (UniProt Q9H2U1) | 0.0357
DIDO1_Q9BTC0_455_CGAQAGIK (UniProt Q9BTC0) | -0.533
DICER1_Q9UPY3_1584_AAQLFLCSLGLK (UniProt Q9UPY3) | 0.268
DNAJB14_Q8TBM8_77_KPSGSGDQSKPNCTK (UniProt Q8TBM8) | -0.752
DKK2_Q9UBU2_214_ICKPVLHQGEVCTK (UniProt Q9UBU2) | -0.0474
DIS3L2_Q8IYB7_797_IYCNALALR (UniProt Q8IYB7) | 0.537
DIS3L2_Q8IYB7_196_LSVCVSEK (UniProt Q8IYB7) | 0.0776
DNAJA1_P31689_261_RGEDLFMCMDIQLVEALCGFQKPISTLDNR (UniProt P31689) | -0.27
DLST_P36957_245_EAQNTCAMLTTFNEIDMSNIQEMR (UniProt P36957) | -0.03
DNMT1_P26358_664_CGVCEVCQQPECGK (UniProt P26358) | -0.191
DNAJA1_P31689_134_NVICDK (UniProt P31689) | -0.342
DNAJC7_Q99615_175_ALEFAPACHR (UniProt Q99615) | -0.577
DNAJC16_Q9Y2G8_744_GKPSCGLGSRPIK (UniProt Q9Y2G8) | -0.523
DLGAP5_Q15398_129_YRPDMPCFLLSNQNAVK (UniProt Q15398) | -1.31
DHX40_Q8IX18_153_YMTDGCLLK (UniProt Q8IX18) | 0.172
DNAJC10_Q8IXB1_158_EFDAAVNSGELWFVNFYSPGCSHCHDLAPTWR (UniProt Q8IXB1) | 0.176

Target | probe-labelled cysteine peptide fold change
DNM1L_O00429_505_HPDFADACGLMNNNIEEQRR (UniProt O00429) | -0.649
DHX36_Q9H2U1_836_AVICAGLYPK (UniProt Q9H2U1) | -0.155
DMXL1_Q9Y485_2781_MFEWGHSQQITCFR (UniProt Q9Y485) | 0.112
DIAPH3_Q9NSV4_1158_EACNVESNR (UniProt Q9NSV4) | -0.438
DNAJC7_Q99615_317_KLDDAIEDCTNAVK (UniProt Q99615) | 0.0179
DIS3L_Q8TF46_962_CHSDTIR (UniProt Q8TF46) | 0.234
DHX57_Q6P158_453_INNPACHK (UniProt Q6P158) | -0.392
DHX9_Q08211_608+612_KDKDDDGGEDDDANCNLICGDEYGPETR (UniProt Q08211) | -0.243
DNAJC13_O75165_884_CHEEIGPFTDTR (UniProt O75165) | 0.254
DNM1L_O00429_505_HPDFADACGLMNNNIEEQR (UniProt O00429) | -0.453
DIS3_Q9Y2L1_474+476_HLCICSVDPPGCTDIDDALHCR (UniProt Q9Y2L1) | -0.285
DIS3_Q9Y2L1_562_LAFSCIWEMNHNAEILK (UniProt Q9Y2L1) | -0.0681
DIAPH1_O60610_1027_MTLLHFLAELCENDYPDVLK (UniProt O60610) | 0.302
DNMT1_P26358_353+356_CIQCGQYLDDPDLK (UniProt P26358) | -0.0723
DHX36_Q9H2U1_977_SRDCAVLSAIIDLIK (UniProt Q9H2U1) | -0.167
DNAJB11_Q9UBS4_196_FQMTQEVVCDECPNVK (UniProt Q9UBS4) | 0.148
DHX29_Q7Z478_648_VCDELGCENGPGGR (UniProt Q7Z478) | -0.0626
DICER1_Q9UPY3_801_CFGILTAKPIPQIPHFPVYTR (UniProt Q9UPY3) | 0.0559

Reference: the supplement of paper PMC12067093, “Discovery and optimisation of a covalent ligand for TRIM25 and its application to targeted protein ubiquitination” (Chemical Science, 2025)
